Test system: tumors compared to a panel of normal tissues
Experiment: Identification and label-free LC-MS quantitation of HLA-presented tumor associated peptides (presentation profiles/scores)
Set-up: species or system human; key to Peptide Presentation (presentation score): very highly over-presented on tumors compared to a panel of normal tissues (+++); highly over-presented on tumors compared to a panel of normal tissues (++); over-presented on tumors compared to a panel of normal tissues (+)
Details: for Peptide Presentation (presentation score): over-presentation on tumors compared to a panel of normal tissues, label-free LC-MS quantitation of HLA peptides

| Substance | Peptide Presentation (presentation score) | further results |
| --- | --- | --- |
| 60 (SLWEDYPHV; listed as Homo sapiens) [compound 60] | ++ |  |
| 162 (NADPQAVTM; listed as Homo sapiens) [compound 162] | +++ |  |
| 82 (ALIAEGIAL; listed as Homo sapiens) [compound 82] | ++ |  |
| 24 (KLSENAGIQSL; listed as Homo sapiens) [compound 24] | +++ |  |
| 148 (YLHNQGIGV; listed as Homo sapiens) [compound 148] | + |  |
| 7 (ALVDIVRSL; listed as Homo sapiens) [compound 7] | +++ |  |
| 143 (TADPLDYRL; listed as Homo sapiens) [compound 143] | ++ |  |
| 37 (FLNPDEVHAI; listed as Homo sapiens) [compound 37] | + | peptide additionally detected on brain cancers (positive/measured samples): 2/34; peptide additionally detected on breast cancers (positive/measured samples): 3/18; peptide additionally found on colon or rectum cancers (positive/measured samples) (colon or rectum cancers): 6/29; peptide additionally detected on esophageal cancers (positive/measured samples): 2/18; peptide additionally detected on gallbladder or bile duct cancers (positive/measured samples): 2/17; peptide additionally found on head and neck cancers (positive/measured samples): 2/8; peptide additionally detected on kidney cancers (positive/measured samples): 1/23; peptide additionally detected on liver cancers (positive/measured samples): 5/21; peptide additionally detected on lung cancers (positive/measured samples): 25/107; peptide additionally found on lymph node cancers (positive/measured samples): 4/20; peptide additionally detected on ovarian cancers (positive/measured samples): 7/20; peptide additionally detected on prostate cancers (positive/measured samples): 1/87; peptide additionally found on skin cancers (positive/measured samples): 2/18; peptide additionally detected on stomach cancers (positive/measured samples): 2/45; peptide additionally detected on urinary bladder cancers (positive/measured samples): 6/15; peptide additionally found on uterus cancers (positive/measured samples): 3/16 |
| 135 (KLDDTYIKA; listed as Homo sapiens) [compound 135] | +++ |  |
| 83 (ALSKEIYVI; listed as Homo sapiens) [compound 83] | +++ |  |
| 50 (LLFGSDGYYV; listed as Homo sapiens) [compound 50] | +++ |  |
| 150 (ALFQPHLINV; listed as Homo sapiens) [compound 150] | ++ |  |
| 164 (YLGRLAHEV; listed as Homo sapiens) [compound 164] | ++ |  |
| 55 (NLAPAPLNA; listed as Homo sapiens) [compound 55] | +++ |  |
| 22 (ILSTEIFGV; listed as Homo sapiens) [compound 22] | +++ | peptide additionally detected on breast cancers (positive/measured samples): 3/18; peptide additionally found on gallbladder cancers (positive/measured samples): 1/17; peptide additionally found on head and neck cancers (positive/measured samples): 1/8; peptide additionally found on leukocytic leukemia cancers (positive/measured samples) (leukocytic leukemia cancers): 5/17; peptide additionally detected on lung cancers (positive/measured samples): 6/107; peptide additionally found on lymph node cancers (positive/measured samples): 4/20; peptide additionally detected on ovarian cancers (positive/measured samples): 1/20; peptide additionally found on pancreas cancers (positive/measured samples) (pancreas cancers): 1/19; peptide additionally found on skin cancers (positive/measured samples): 1/18; peptide additionally detected on stomach cancers (positive/measured samples): 1/21 |
| 19 (ALWHDAENQTVV; listed as Homo sapiens) [compound 19] | +++ | peptide additionally detected on brain cancers (positive/measured samples): 2/34; peptide additionally detected on breast cancers (positive/measured samples): 1/18; peptide additionally detected on esophageal cancers (positive/measured samples): 1/18; peptide additionally detected on gallbladder or bile duct cancers (positive/measured samples): 2/17; peptide additionally detected on liver cancers (positive/measured samples): 1/21; peptide additionally detected on lung cancers (positive/measured samples): 8/107; peptide additionally found on skin cancers (positive/measured samples): 2/18; peptide additionally detected on urinary bladder cancers (positive/measured samples): 2/15; peptide additionally found on uterus cancers (positive/measured samples): 1/16 |
| 174 (TLDPRSFLL; listed as Homo sapiens) [compound 174] | ++ |  |
| 70 (VLGVIWGV; listed as Homo sapiens) [compound 70] | +++ |  |
| 43 (HLGVKVFSV; listed as Homo sapiens) [compound 43] | +++ |  |
| 119 (VLGDDPQLMKV; listed as Homo sapiens) [compound 119] | + |  |
| 10 (VLLDKIKNL; listed as Homo sapiens) [compound 10] | + |  |
| 63 (SVTGIIVGV; listed as Homo sapiens) [compound 63] | +++ |  |
| 53 (LLWDPSTGKQV; listed as Homo sapiens) [compound 53] | +++ |  |
| 172 (TMMSRPPVL; listed as Homo sapiens) [compound 172] | ++ |  |
| 118 (TLWYRPPEL; listed as Homo sapiens) [compound 118] | ++ |  |
| 122 (MQAPRAALVFA; listed as Homo sapiens) [compound 122] | + |  |
| 58 (RQYPWGVVQV; listed as Homo sapiens) [compound 58] | +++ |  |

| Substance | Peptide Presentation (presentation score) | further results |
| --- | --- | --- |
| 49 (LLDGFPRTV; listed as Homo sapiens) [compound 49] | +++ |  |
| 86 (GLGDFIFYSV; listed as Homo sapiens) [compound 86] | + |  |
| 39 (FLTPSIFII; listed as Homo sapiens) [compound 39] | +++ |  |
| 88 (IIDDTIFNL; listed as Homo sapiens) [compound 88] | ++ |  |
| 94 (VMMEEFVQL; listed as Homo sapiens) [compound 94] | + |  |
| 21 (GLVDGRDLVIV; listed as Homo sapiens) [compound 21] | +++ |  |
| 156 (LLLPPPPCPA; listed as Homo sapiens) [compound 156] | + |  |
| 120 (VLVNDFFLV; listed as Homo sapiens) [compound 120] | ++ |  |
| 23 (KLDSSGGAVQL; listed as Homo sapiens) [compound 23] | ++ |  |
| 157 (MLLEIPYMAA; listed as Homo sapiens) [compound 157] | ++ |  |
| 69 (VLFSGSLRL; listed as Homo sapiens) [compound 69] | +++ | peptide additionally detected on breast cancers (positive/measured samples): 2/18; peptide additionally detected on esophageal cancers (positive/measured samples): 1/18; peptide additionally found on gallbladder cancers (positive/measured samples): 1/17; peptide additionally detected on lung cancers (positive/measured samples): 9/107; peptide additionally detected on ovarian cancers (positive/measured samples): 1/20 |
| 100 (ALFGAGPASI; listed as Homo sapiens) [compound 100] | +++ |  |
| 74 (YIDKDLEYV; listed as Homo sapiens) [compound 74] | +++ |  |
| 93 (SIDSEPALV; listed as Homo sapiens) [compound 93] | +++ |  |
| 106 (FVWSGTAEA; listed as Homo sapiens) [compound 106] | +++ |  |
| 14 (FIIDNPQDLKV; listed as Homo sapiens) [compound 14] | +++ |  |
| 125 (ALLGKLDAINV; listed as Homo sapiens) [compound 125] | +++ |  |
| 167 (MLFGHPLLVSV; listed as Homo sapiens) [compound 167] | +++ |  |
| 105 (FLSEVFHQA; listed as Homo sapiens) [compound 105] | + |  |
| 6 (ALTGIPLPLI; listed as Homo sapiens) [compound 6] | +++ |  |
| 4 (ALDPAAQAFLL; listed as Homo sapiens) [compound 4] | +++ |  |
| 111 (LLLAAARLAAA; listed as Homo sapiens) [compound 111] | + |  |
| 108 (IADGGFTEL; listed as Homo sapiens) [compound 108] | +++ |  |
| 115 (SLMDPNKFLLL; listed as Homo sapiens) [compound 115] | ++ | peptide additionally detected on brain cancers (positive/measured samples): 7/29; peptide additionally detected on breast cancers (positive/measured samples): 1/6; peptide additionally detected on colorectal cancers (positive/measured samples) (colorectal cancers): 5/24; peptide additionally detected on esophageal cancers (positive/measured samples): 1/17; peptide additionally detected on gallbladder or bile duct cancers (positive/measured samples): 1/2; peptide additionally detected on kidney cancers (positive/measured samples): 3/18; peptide additionally detected on leukemias (positive/measured samples) (leukemias): 3/12; peptide additionally detected on liver cancers (positive/measured samples): 6/16; peptide additionally detected on melanomas (positive/measured samples) (melanomas): 1/2; peptide additionally detected on non-small cell lung carcinomas (positive/measured samples) (non-small cell lung carcinomas): 16/91; peptide additionally detected on ovarian cancers (positive/measured samples): 5/20; peptide additionally detected on prostate cancers (positive/measured samples): 3/33; peptide additionally detected on small cell lung carcinomas (positive/measured samples) (small cell lung carcinomas): 3/14; peptide additionally detected on urinary bladder cancers (positive/measured samples): 1/4 |
| 160 (VLLPDERTISL; listed as Homo sapiens) [compound 160] | +++ |  |
| 158 (SLIEKYFSV; listed as Homo sapiens) [compound 158] | + |  |
| 27 (TLLAHPVTL; listed as Homo sapiens) [compound 27] | + |  |

Source: patent US11485769B2, “Peptides and combination of peptides for use in immunotherapy and methods for generating scaffolds for the use against pancreatic cancer and other cancers” (Immatics Biotechnologies GmbH, priority 2015, dated 2022)
